The target of assay [1] is C-terminal FLAG-tagged RNF43 R337* (human) (UniProt Q68DV7). In words: co-IP; HEK293T cells co-transfected with C-terminal FLAG-tagged RNF43 (WT or mutant) and mFZD5-HA; lysis in 50 mM Tris pH 7.5, 150 mM NaCl, 0.5% Triton X-100, 5 mM EDTA, 1 mM DTT; immunoprecipitated with control IgG or FLAG antibody and Protein G Agarose at 4 °C; immunoblot. A general note: Immunoblotting shows a protein as a band on a membrane.

The chains behind the UniProt entries cited, without tags or fusion partners. Where a name states a change or a piece, a line headed by the entry shows the natural chain unless it says otherwise. A line that says so, or that is headed by a name, gives the form on record, which may keep a tag or linker. Residues count along the entry.
UniProt Q68DV7: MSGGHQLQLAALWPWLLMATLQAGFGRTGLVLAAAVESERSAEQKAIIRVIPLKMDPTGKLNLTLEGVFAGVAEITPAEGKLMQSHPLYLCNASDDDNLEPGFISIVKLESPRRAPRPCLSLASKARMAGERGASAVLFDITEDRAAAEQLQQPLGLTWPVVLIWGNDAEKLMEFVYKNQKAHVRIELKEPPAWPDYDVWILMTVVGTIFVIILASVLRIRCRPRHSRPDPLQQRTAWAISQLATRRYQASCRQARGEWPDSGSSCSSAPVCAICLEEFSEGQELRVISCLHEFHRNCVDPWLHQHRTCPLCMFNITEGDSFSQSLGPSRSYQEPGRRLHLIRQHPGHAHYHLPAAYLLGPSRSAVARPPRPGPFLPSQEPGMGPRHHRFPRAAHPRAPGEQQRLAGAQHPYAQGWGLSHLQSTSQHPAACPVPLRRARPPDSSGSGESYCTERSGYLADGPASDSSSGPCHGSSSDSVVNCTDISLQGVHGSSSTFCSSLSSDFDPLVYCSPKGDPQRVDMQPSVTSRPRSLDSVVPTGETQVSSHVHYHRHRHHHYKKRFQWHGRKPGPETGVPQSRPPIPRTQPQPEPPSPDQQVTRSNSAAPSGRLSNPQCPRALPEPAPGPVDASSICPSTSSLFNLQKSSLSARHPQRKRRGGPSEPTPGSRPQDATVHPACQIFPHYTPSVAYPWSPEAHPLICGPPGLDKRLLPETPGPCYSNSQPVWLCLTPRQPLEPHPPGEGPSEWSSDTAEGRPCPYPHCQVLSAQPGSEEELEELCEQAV
C-terminal FLAG-tagged WT RNF43: residues 24-783 of Q68DV7
C-terminal FLAG-tagged RNF43 R337*: residues 24-336 of Q68DV7
UniProt Q9EQD0, residues 27-585: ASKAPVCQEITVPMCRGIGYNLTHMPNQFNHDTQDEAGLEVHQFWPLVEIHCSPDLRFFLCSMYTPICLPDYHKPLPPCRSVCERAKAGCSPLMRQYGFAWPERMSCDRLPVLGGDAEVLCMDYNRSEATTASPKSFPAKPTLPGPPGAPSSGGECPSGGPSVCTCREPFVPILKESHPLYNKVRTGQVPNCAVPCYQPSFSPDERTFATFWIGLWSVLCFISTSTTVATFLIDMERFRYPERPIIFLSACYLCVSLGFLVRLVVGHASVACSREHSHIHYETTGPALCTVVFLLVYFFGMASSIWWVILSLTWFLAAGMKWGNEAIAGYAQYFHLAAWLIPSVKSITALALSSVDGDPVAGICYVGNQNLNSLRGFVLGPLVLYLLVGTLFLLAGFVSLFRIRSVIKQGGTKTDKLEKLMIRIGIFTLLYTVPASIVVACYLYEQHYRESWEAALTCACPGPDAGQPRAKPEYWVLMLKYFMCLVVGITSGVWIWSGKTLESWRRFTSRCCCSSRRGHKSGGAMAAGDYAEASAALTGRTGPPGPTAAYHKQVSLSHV

For assay [2], the target named is C-terminal FLAG-tagged WT RNF43 (human) (UniProt Q68DV7). The assay is described as above.

Results are given in words; binding and its absence hold for the method and conditions named. Binding seen in cells or lysates may run through a third protein. Some entries that bind do so weakly or less than the wild type.

As for “mFZD5-HA (from UniProt Q9EQD0 27-585) (receptor)”, the binding result in assay [1] and in assay [2] was “binds” throughout.
